Drawing on paper PMC8406222, this text covers binding for 1 substance.

Sequences of proteins named here, by UniProt entry; tags and fusion partners are left off.
UniProt P9WN61: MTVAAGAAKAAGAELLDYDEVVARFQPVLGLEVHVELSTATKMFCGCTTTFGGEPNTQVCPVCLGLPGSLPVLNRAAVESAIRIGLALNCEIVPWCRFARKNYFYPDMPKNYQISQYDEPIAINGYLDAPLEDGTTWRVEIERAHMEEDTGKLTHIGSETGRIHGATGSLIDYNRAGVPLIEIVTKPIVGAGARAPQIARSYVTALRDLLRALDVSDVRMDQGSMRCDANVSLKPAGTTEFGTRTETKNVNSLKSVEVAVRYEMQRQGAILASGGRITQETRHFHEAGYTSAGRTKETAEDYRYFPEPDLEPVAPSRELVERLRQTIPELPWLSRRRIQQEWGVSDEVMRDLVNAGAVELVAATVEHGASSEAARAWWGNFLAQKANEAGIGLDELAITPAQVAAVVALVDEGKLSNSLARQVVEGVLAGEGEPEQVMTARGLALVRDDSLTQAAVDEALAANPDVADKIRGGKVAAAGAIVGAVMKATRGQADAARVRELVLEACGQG
UniProt P9WQA1: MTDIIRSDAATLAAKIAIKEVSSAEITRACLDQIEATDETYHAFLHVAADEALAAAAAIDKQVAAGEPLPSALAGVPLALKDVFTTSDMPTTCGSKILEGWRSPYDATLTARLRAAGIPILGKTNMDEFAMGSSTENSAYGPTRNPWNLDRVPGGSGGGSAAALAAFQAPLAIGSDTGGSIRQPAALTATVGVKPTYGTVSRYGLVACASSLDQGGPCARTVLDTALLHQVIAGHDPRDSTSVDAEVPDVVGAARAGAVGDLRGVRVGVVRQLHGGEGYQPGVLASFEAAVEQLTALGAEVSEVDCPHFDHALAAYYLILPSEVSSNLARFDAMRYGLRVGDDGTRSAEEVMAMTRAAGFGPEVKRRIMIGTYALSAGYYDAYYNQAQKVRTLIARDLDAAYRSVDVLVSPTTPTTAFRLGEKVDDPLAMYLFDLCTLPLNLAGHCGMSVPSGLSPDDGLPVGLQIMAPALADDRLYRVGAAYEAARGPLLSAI

Results are given in words; binding and its absence hold for the method and conditions named. Some binding calls cover weakened binding; strength is not graded here.

The assay concerns the target M. tuberculosis GatB with C-terminal 6xHis tag (M. tuberculosis) (UniProt P9WN61). Briefly: tandem affinity co-purification (Ni-NTA, then Strep-Tactin).

As to “M. tuberculosis GatA, wild type (from UniProt P9WQA1 1-494)”, the binding entry is recorded as “binds”.
